Source: patent US9714277B2 (priority 2013, dated 2017)
Part of at least one peptide drawing is inferred or uncertain, most often the ends.

Sequences of proteins named here, by UniProt entry; tags and fusion partners are left off. Residues count along the entry.
UniProt P47871, 26-477: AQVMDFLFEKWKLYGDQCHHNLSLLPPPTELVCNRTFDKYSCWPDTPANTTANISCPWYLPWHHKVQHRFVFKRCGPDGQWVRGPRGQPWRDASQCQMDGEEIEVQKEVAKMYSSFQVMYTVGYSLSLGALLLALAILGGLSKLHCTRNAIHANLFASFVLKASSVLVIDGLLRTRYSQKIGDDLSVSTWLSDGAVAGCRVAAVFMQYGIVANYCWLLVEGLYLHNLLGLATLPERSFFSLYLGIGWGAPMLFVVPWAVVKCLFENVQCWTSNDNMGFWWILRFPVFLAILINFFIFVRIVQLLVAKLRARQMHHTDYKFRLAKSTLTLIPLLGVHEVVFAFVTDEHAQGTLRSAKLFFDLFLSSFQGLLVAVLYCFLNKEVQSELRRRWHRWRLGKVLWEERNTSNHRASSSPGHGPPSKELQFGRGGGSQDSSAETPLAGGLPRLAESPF

Target: T1, glucagon receptor (GCGR) (Homo sapiens, UniProt P47871)
T1 construct: expressed in transfected cells
Assay: Cell-based cAMP activity assay (HTRF), glucagon receptor
Conditions: stable HEK293s or CHO cells expressing the receptor, 30 minutes at room temperature, read-out: Glcg EC50

Row | Structure (SMILES) | EC50
1 | CC(C)C[C@H](NC(=O)[C@H](Cc1ccc(O)cc1)NC(=O)[C@H](CCCCN)NC(=O)[C@H](CO)NC(=O)[C@H](Cc1ccc(O)cc1)NC(=O)[C@H](CC(=O)O)NC(=O)[C@H](CO)NC(=O)[C@@H](NC(=O)[C@H](Cc1ccccc1)NC(=O)[C@@H](NC(=O)CNC(=O)[C@H](CCC(N)=O)NC(=O)[C@H](CO)NC(=O)[C@@H](N)Cc1c[nH]cn1)[C@@H](C)O)[C@@H](C)O)C(=O)N[C@@H](CC(=O)O)C(=O)N[C@@H](CO)C(=O)N[C@@H](CCCNC(=N)N)C(=O)N[C@@H](CCCNC(=N)N)C(=O)N[C@@H](C)C(=O)N[C@@H](CCC(N)=O)C(=O)N[C@@H](CC(=O)O)C(=O)N[C@@H](Cc1ccccc1)C(=O)N[C@H](C(=O)N[C@@H](CCC(N)=O)C(=O)N[C@@H](Cc1c[nH]c2ccccc12)C(=O)N[C@@H](CC(C)C)C(=O)N[C@H](C(=O)NCCCCCC(=O)O)C(C)C)C(C)C [g357, HSQGTFTSDYSKYLDSRRAQDFVQWLVX1] | 0.08 nM
2 | CC(C)C[C@H](NC(=O)[C@H](Cc1ccc(O)cc1)NC(=O)[C@H](CCCCN)NC(=O)[C@H](CO)NC(=O)[C@H](Cc1ccc(O)cc1)NC(=O)[C@H](CC(=O)O)NC(=O)[C@H](CO)NC(=O)[C@@H](NC(=O)[C@H](Cc1ccccc1)NC(=O)[C@@H](NC(=O)CNC(=O)[C@H](CCC(N)=O)NC(=O)[C@H](CO)NC(=O)[C@@H](N)Cc1c[nH]cn1)[C@@H](C)O)[C@@H](C)O)C(=O)N[C@@H](CC(=O)O)C(=O)N[C@@H](CO)C(=O)N[C@@H](CCCNC(=N)N)C(=O)N[C@@H](CCCNC(=N)N)C(=O)N[C@@H](C)C(=O)N[C@@H](CCC(N)=O)C(=O)N[C@@H](CC(=O)O)C(=O)N[C@@H](Cc1ccccc1)C(=O)N[C@H](C(=O)N[C@@H](CCC(N)=O)C(=O)N[C@@H](Cc1c[nH]c2ccccc12)C(=O)N[C@@H](CC(C)C)C(=O)N[C@H](C(=O)NCCCCCCCCCCC(=O)O)C(C)C)C(C)C [g358, HSQGTFTSDYSKYLDSRRAQDFVQWLVX2] | 0.03 nM
